Measured values from patent US11214806B2, “Marker, method and kit for observing effect of compound or drug on cells in real time, and use thereof” (priority 2016, dated 2022).
Some entries share one result that the patent states for a list of compounds. At least one structure is not confirmed: it was looked up by name or label, or the drawing left a doubt.

System: VirE2 trafficking in N. benthamiana (Nb308A) leaf epidermal cells
Test: Real-time VirE2-GFPcomp trafficking in agroinfiltrated tobacco leaf epidermal cells (split-GFP, confocal microscopy)
Assay type: cell-based
Conditions: colchicine 500 μM, cytochalasin D 20 μM, brefeldin A 100 μg/mL, 6 h before observation; over 20 events per treatment; FIG. 1c
Method: To visualize Agrobacterium-delivered VirE2, agroinfiltration was performed as described previously. Briefly, the bacteria were grown overnight; the cultures were diluted 50 times in MG/L and grown for 6 h. The bacteria were collected and re-suspended in infiltration buffer (10 mM MgCl2, 10 mM MES, pH5.5) to OD600=1.0. The bacterial suspension was infiltrated using a syringe to the underside of fully expended N. benthamiana leaves. The infiltrated plant was placed at 22° C. in a photoperiod of 16 h light/8 h dark. In order to observe a real-time effect of a compound or a drug on cells in real time, the inventor injected and infiltrated the compound or the drug into a leaf injected and infiltrated with A. tumefaciens EHA105virE2::GFP11 cell at an appropriate concentration, and observed with a UPLSAPO×60 N.A. 1.20 water immersion lens under a confocal microscope after six hours.
A PerkinElmer UltraView Vox Spinning Disk system with EM-CCD cameras was used for confocal microscopy. […]
FIG. 1 illustrated Agrobacterium-delivered VirE2 trafficking on a cellular structure and entering the nucleus. […] Data analyzed with ANOVA and Tukey test, p<0.05. […]
FIG. 4 illustrated effects of ML-7 and myosin-tail overexpression on VirE2 trafficking. […] GFP1-10 was detected to assess the amount of sample loaded, as shown in the lower panel. […]

| Structure (SMILES) | average velocity of VirE2 movement, relative to the control |
| --- | --- |
| C[C@H]1CCC/C=C/[C@@H]2C[C@H](O)C[C@H]2[C@H](O)/C=C/C(=O)O1 [brefeldin A] | less than 20% |
| C=C1[C@@H](C)[C@H]2[C@H](Cc3ccccc3)NC(=O)[C@]23[C@H](OC(C)=O)/C=C/[C@@](C)(O)C(=O)[C@@H](C)C/C=C/[C@H]3[C@@H]1O [cytochalasin D] | less than 20% |
